Results: patent US7354912B2, “Unique compositions of zwitterionic phospholipids and bisphosphonates and use of the compositions as bisphosphate delivery systems with reduced GI toxicity” (Board of Reagents, University of Texas System, priority 2000, dated 2008)

How the values were obtained:
[1] = tested on: gastric mucosa; experiment: acute bisphosphonate/indomethacin gastric injury model of Blank et al. (gastric lesion score, gastric bleeding); assay type: in vivo, rat; settings: rats, comparison of three bisphosphonates
Text: The experiments investigated the effects of different bisphosphonates on the surface hydrophobicity and phospholipid concentration of the antral mucosa, using the animal model of Blank et. al. (Blank M A, Ems B L, Gibson G W, Myers W R, Berman S K, Phipps R J, Smith P N, Dig Dis Sci, 42, 281-288 (1997)), and compared the effects of these surface changes to the gastric toxicity of these drugs.
Looking at FIG. 2, an antrum lesion score is plotted against time.
The model and the ability for phospholipids to inhibit bisphosphonate GI toxicity was investigated in pilot preclinical studies using the rodent model of Blank et. al. (Blank M A, Ems B L, Gibson G W, Myers W R, Berman S K, Phipps R J, Smith P N, Dig Dis Sci, 42, 281-288 (1997)), where the bisphosphonate test drug was administered simultaneously with indomethacin.
60 mg of Phospholipon 90G (90-93% pure PC) was dissolved in chloroform in a tube. […] The organic solvent was removed under nitrogen and resulting PC material was left under vacuum overnight to form a PC film in the tube. […] The solution was then added to the dried PC film in the tube. The mixture was sonicated in a both type sonicator at room temperature for 5 min., prior to administration to fasted rats.
20 mg of dipalmitoyl PC (DPPC) and Phospholipon 90 G were dissolved in chloroform in separate tubes, and dried as described in Example 1. […]

[2] = tested on: gastric mucosa; settings: rats, intragastric high doses, with indomethacin; cited from earlier work

NCCCC(O)(P(=O)(O)O)P(=O)(O)O [alendronate, 4-amino-1-hydroxybutylidene-1,1-bisphosphonic acid]
order of gastrotoxicity (FIG. 4) [1]: pamidronate>>alendronate>risedronate | irritation of the gastric mucosa (comparison of bisphosphonates) [2]: more irritating
